Laboratory results: PubChem BioAssay AID330 (DTP/NCI, 2004)
The list shows only some results of the screen, not a fair sample: it gathers tests that were run many times, whatever their T/C, doses with no T/C, and many T/C values between a quarter and a half above the control. Other doses and runs of a compound stand elsewhere. T/C: endpoint of the treated group in % of that of the vehicle group. Some entries give survivors of the animals treated and no T/C: the source files T/C as zero there, which appears to mark a toxic dose or a test without result, not a measured value. Some doses without a T/C left all or most animals alive at the check, yet need not have been tolerated: the source hardly ever lists a survival T/C far under the control, and the zero likely stands for such cases as well. Counts of survivors are from the toxicity check (mostly the fifth day) where no day follows; animals may have died later. Schedule codes are those of the source, taken here to give the interval after Q, in days (D) or hours (H), and the number of doses after X. For survival time, the PubChem record calls one and a half times the control and up active, and a quarter to a half above the control has no call in these data; cut-offs in other NCI protocols can differ. Some doses were run more than once; the values are given in rising order. Some T/C values carry the count of animals alive at the toxicity check (mostly the fifth day); without a count, all were alive then.

Tested on: P388 leukemia ip, CD2F1 mice, survival T/C
Experiment: NCI In Vivo Anticancer Drug Screen. Data for tumor model P388 Leukemia (intraperitoneal) in CD2F1 (CDF1) mice
Details: T/C endpoint: median survival time, higher T/C = longer survival
[1] = dose: 200.0 mg/kg/injection, schedule: Q01DX001 (ip), vehicle: saline with Tween-80
[2] = dose: 400.0 mg/kg/injection, schedule: Q01DX001 (ip), vehicle: saline with Tween-80
[3] = dose: 200.0 mg/kg/injection, schedule: Q01DX005 (ip), vehicle: saline with Tween-80
[4] = dose: 200.0 mg/kg/injection, schedule: Q01DX005 (ip), vehicle: Klucel (hydroxypropylcellulose) (HPC)
[5] = dose: 100.0 mg/kg/injection, schedule: Q01DX009 (ip), vehicle: saline with Tween-80
[6] = dose: 200.0 mg/kg/injection, schedule: Q01DX009 (ip), vehicle: saline with Tween-80
[7] = dose: 25.0 mg/kg/injection, schedule: Q01DX009 (ip), vehicle: saline with Tween-80
[8] = dose: 3.12 mg/kg/injection, schedule: Q01DX009 (ip), vehicle: Klucel (hydroxypropylcellulose) (HPC)
[9] = dose: 6.25 mg/kg/injection, schedule: Q01DX009 (ip), vehicle: Klucel (hydroxypropylcellulose) (HPC)
[10] = dose: 100.0 mg/kg/injection, schedule: Q01DX009 (ip), vehicle: saline
[11] = dose: 200.0 mg/kg/injection, schedule: Q01DX009 (ip), vehicle: saline
[12] = dose: 400.0 mg/kg/injection, schedule: Q04DX003 (ip), vehicle: saline with Tween-80

Compound: CC(C)(C)C1=CS(=O)(=O)C1
- survivor count (dose: 6.25 mg/kg/injection, schedule: Q01DX001 (ip), vehicle: saline with Tween-80): 0 of 6
- survivor count (dose: 12.5 mg/kg/injection, schedule: Q01DX001 (ip), vehicle: saline with Tween-80): 0 of 6
- survivor count (dose: 25.0 mg/kg/injection, schedule: Q01DX001 (ip), vehicle: saline with Tween-80): 0 of 6
- survivor count (dose: 50.0 mg/kg/injection, schedule: Q01DX001 (ip), vehicle: saline with Tween-80): 0 of 6
- survivor count (dose: 100.0 mg/kg/injection, schedule: Q01DX001 (ip), vehicle: saline with Tween-80): 0 of 6
- survivor count [1]: 0 of 6
- survivor count [2]: 0 of 6

Compound: CN=C(NC)c1ccc(NC(=O)c2ccc(C(=O)Nc3ccc(C(=NC)NC)c(OC)c3)c(Cl)c2)cc1OC
- survivor count (dose: 6.25 mg/kg/injection, schedule: Q01DX005 (ip), vehicle: saline with Tween-80): 0 of 6
- survivor count (dose: 12.5 mg/kg/injection, schedule: Q01DX005 (ip), vehicle: saline with Tween-80): 0 of 6
- survivor count (dose: 25.0 mg/kg/injection, schedule: Q01DX005 (ip), vehicle: saline with Tween-80): 0 of 6
- survivor count (dose: 50.0 mg/kg/injection, schedule: Q01DX005 (ip), vehicle: saline with Tween-80): 0 of 6
- survivor count (dose: 100.0 mg/kg/injection, schedule: Q01DX005 (ip), vehicle: saline with Tween-80): 0 of 6
- survivor count [3]: 0 of 6

Compound: Cc1nc2ccccc2c(=O)n1/N=C1\C(=O)N(C)c2ccccc21
- survivor count [4]: 2 of 6

Compound: Clc1ccc2c(NCCCC3CCCN4CCCCC34)ccnc2c1 (configuration not stated)
- survivor count [4]: 0 of 6

Compound: CCN(CC)c1ccc2cc(-c3nc4ccccc4[nH]3)c(=O)oc2c1
- survivor count [5]: 5 of 6
- survivor count [6]: 6 of 6

Compound: COC(=O)c1ncn(Cc2ccccc2)c1N
- survivor count (dose: 200.0 mg/kg/injection, schedule: Q04DX002 (ip), vehicle: saline with Tween-80): 3 of 6
- survivor count (dose: 400.0 mg/kg/injection, schedule: Q04DX002 (ip), vehicle: saline with Tween-80): 0 of 6

Compound: CN(C)CCOc1ccc2c(c1)C(=O)/C(=C\c1ncc([N+](=O)[O-])n1C)C2
- T/C [7]: 126 % of control
- T/C (dose: 50.0 mg/kg/injection, schedule: Q01DX009 (ip), vehicle: saline with Tween-80): 126 and 129 % of control
- T/C [5]: 129 % of control [5 of 6 alive]
- survivor count [6]: 1 of 6

Compound: COc1ccc2c(c1)[C@]13CCN(N=O)[C@H](C2)[C@@H]1CCC(=O)C3
- survivor count [1]: 3 of 6
- survivor count [2]: 0 of 6

Compound: C1CCC2[N-]CC3CCCCC3[N-]CC3CCCCC3[N-]CC3CCCCC3[N-]CC2C1.[Cu+2].[O-][Cl+3]([O-])([O-])O (configuration not stated)
- T/C (dose: 1.56 mg/kg/injection, schedule: Q01DX009 (ip), vehicle: Klucel (hydroxypropylcellulose) (HPC)): 136 % of control
- T/C [8]: 136 % of control
- survivor count [8]: 6 of 6
- T/C [9]: 145 % of control
- survivor count [9]: 6 of 6
- T/C (dose: 12.0 mg/kg/injection, schedule: Q01DX009 (ip), vehicle: saline with Tween-80): 145 % of control
- T/C (dose: 18.0 mg/kg/injection, schedule: Q01DX009 (ip), vehicle: saline with Tween-80): 139 % of control
- T/C [7]: 135 % of control
- survivor count (dose: 50.0 mg/kg/injection, schedule: Q01DX009 (ip), vehicle: Klucel (hydroxypropylcellulose) (HPC)): 0 of 6

Compound: c1ccc(C23CN(Cc4ccccc42)Cc2ccccc23)cc1
- survivor count [2]: 1 of 6

Compound: N#CCCNCCC[Si]12OCCN(CCO1)CCO2
- survivor count (dose: 50.0 mg/kg/injection, schedule: Q01DX005 (ip), vehicle: Klucel (hydroxypropylcellulose) (HPC)): 6 of 6
- survivor count (dose: 100.0 mg/kg/injection, schedule: Q01DX005 (ip), vehicle: Klucel (hydroxypropylcellulose) (HPC)): 6 of 6

Compound: O=C1CC2COc3ccc(OCCN4CCCC4)cc3C2=NN1c1ccccc1 (configuration not stated)
- survivor count [3]: 3 of 6

Compound: C=CCOC1CC(C)(O)Cc2cc3c(c(O)c21)C(=O)c1c(O)cc2c(c1C3=O)OC1OC2(C)C(O)C(N(C)C)C1O (configuration not stated)
- T/C (dose: 5.0 mg/kg/injection, schedule: Q01DX009 (ip), vehicle: other): 125 % of control
- survivor count (dose: 20.0 mg/kg/injection, schedule: Q01DX009 (ip), vehicle: other): 6 of 6

Compound: O=[N+]([O-])c1cc(Cl)c(Cl)cc1[N+](=O)[O-]
- survivor count [6]: 3 of 6

Compound: CN1CCCC(C(=O)c2ccccc2)C1 (configuration not stated)
- survivor count [10]: 3 of 6
- survivor count [11]: 0 of 6

Compound: N=c1c2ccn(C3OC(CO)C(O)C3O)c2ncn1N (configuration not stated)
- T/C (dose: 12.5 mg/kg/injection, schedule: Q01DX009 (ip), vehicle: water): 126 % of control
- T/C (dose: 25.0 mg/kg/injection, schedule: Q01DX009 (ip), vehicle: water): 125 % of control
- survivor count (dose: 100.0 mg/kg/injection, schedule: Q01DX009 (ip), vehicle: water): 6 of 6

Compound: CC(C)(C)SC(=O)C1CC1
- survivor count [12]: 0 of 6

Compound: CC1=C(C)CC2C(=O)c3c(c(O)c4ccccc4c3Cl)C(=O)C2C1 (configuration not stated)
- survivor count (dose: 100.0 mg/kg/injection, schedule: Q01DX001 (ip), vehicle: Klucel (hydroxypropylcellulose) (HPC)): 6 of 6
- survivor count (dose: 200.0 mg/kg/injection, schedule: Q01DX001 (ip), vehicle: Klucel (hydroxypropylcellulose) (HPC)): 5 of 6
- survivor count (dose: 400.0 mg/kg/injection, schedule: Q01DX001 (ip), vehicle: Klucel (hydroxypropylcellulose) (HPC)): 3 of 6

Compound: CC1=C(C#N)C(=O)OC1(C)C1CCCC(=O)C1 (configuration not stated)
- survivor count (dose: 120.0 mg/kg/injection, schedule: Q01DX005 (ip), vehicle: saline with Tween-80): 3 of 6
- survivor count (dose: 240.0 mg/kg/injection, schedule: Q01DX005 (ip), vehicle: saline with Tween-80): 3 of 6

Compound: COC(=O)c1c(OC)cc2cc3c(c(O)c2c1C)C(=O)C1(O)C(=O)C=C(OC)C(OC(=O)CC(C)N)=C1C3=O (configuration not stated)
- survivor count (dose: 200.0 mg/kg/injection, schedule: Q01DX005 (ip), vehicle: water): 1 of 6

Compound: C1CCN(CCCCN2CCCCC2)CC1
- survivor count [10]: 2 of 6
- survivor count [11]: 2 of 6

Compound: O=c1cc(-c2ccccc2)ss1
- survivor count (dose: 400.0 mg/kg/injection, schedule: Q01DX009 (ip), vehicle: other): 3 of 6

Compound: CCCCCN(CCCCC)c1ccc(/C=C/c2ccnc3ccccc23)cc1
- T/C (dose: 100.0 mg/kg/injection, schedule: Q01DX009 (ip), vehicle: Klucel (hydroxypropylcellulose) (HPC)): 127 % of control [5 of 6 alive]
- survivor count (dose: 200.0 mg/kg/injection, schedule: Q01DX009 (ip), vehicle: Klucel (hydroxypropylcellulose) (HPC)): 5 of 6

Compound: Cn1c(=O)c2c(ncn2CCNC(c2ccccc2)c2ccc(Br)cc2)n(C)c1=O (configuration not stated)
- survivor count (dose: 50.0 mg/kg/injection, schedule: Q01DX005 (ip), vehicle: other): 0 of 5
- survivor count (dose: 100.0 mg/kg/injection, schedule: Q01DX005 (ip), vehicle: other): 0 of 5
- survivor count (dose: 200.0 mg/kg/injection, schedule: Q01DX005 (ip), vehicle: other): 0 of 5

Compound: CCC(=O)O[C@H]1CC[C@H]2[C@@H]3CC(=C(Br)Br)C4=CC(=O)CC[C@]4(C)[C@H]3CC[C@]12C
- survivor count (dose: 100.0 mg/kg/injection, schedule: Q04DX003 (ip), vehicle: saline with Tween-80): 6 of 6
- survivor count (dose: 200.0 mg/kg/injection, schedule: Q04DX003 (ip), vehicle: saline with Tween-80): 6 of 6
- survivor count [12]: 6 of 6

Compound: COc1ccccc1CC(N)c1nn[nH]n1 (configuration not stated)
- survivor count (dose: 400.0 mg/kg/injection, schedule: Q01DX009 (ip), vehicle: saline with Tween-80): 3 of 6

Compound: CCCOc1cncc(C)n1
- survivor count [10]: 5 of 6
- survivor count [11]: 2 of 6
